Measurements: publication PMC10914257
No constants are given. Whether binding was seen depends on the method and setting. For part of these data: Binding calls can cover weak binding; strength is not graded here.

Tests used:
Experiment in all cases: two-hybrid; clones in pGADT7 and pGBKT7 in yeast strain AH109; growth on SD-Ade-Leu-Trp-His or SD-Leu-Trp-His plates with 3-amino-1,2,4-triazole, 5 days at 30°C
[1] = target: T1, Cep131-C1 (782-1114 aa) (Drosophila) (UniProt A1Z7Z9)
T1 sequence: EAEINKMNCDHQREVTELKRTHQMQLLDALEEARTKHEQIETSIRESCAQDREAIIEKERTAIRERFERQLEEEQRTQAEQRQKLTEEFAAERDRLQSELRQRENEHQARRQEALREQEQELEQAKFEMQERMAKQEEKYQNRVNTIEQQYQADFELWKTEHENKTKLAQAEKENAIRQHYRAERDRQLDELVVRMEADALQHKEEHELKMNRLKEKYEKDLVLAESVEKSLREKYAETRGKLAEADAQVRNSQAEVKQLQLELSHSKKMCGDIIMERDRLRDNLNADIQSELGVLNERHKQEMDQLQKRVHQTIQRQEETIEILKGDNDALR

[2] = target: T2, Cep131-FL (1-1114 aa) (Drosophila) (UniProt A1Z7Z9)
T2 sequence: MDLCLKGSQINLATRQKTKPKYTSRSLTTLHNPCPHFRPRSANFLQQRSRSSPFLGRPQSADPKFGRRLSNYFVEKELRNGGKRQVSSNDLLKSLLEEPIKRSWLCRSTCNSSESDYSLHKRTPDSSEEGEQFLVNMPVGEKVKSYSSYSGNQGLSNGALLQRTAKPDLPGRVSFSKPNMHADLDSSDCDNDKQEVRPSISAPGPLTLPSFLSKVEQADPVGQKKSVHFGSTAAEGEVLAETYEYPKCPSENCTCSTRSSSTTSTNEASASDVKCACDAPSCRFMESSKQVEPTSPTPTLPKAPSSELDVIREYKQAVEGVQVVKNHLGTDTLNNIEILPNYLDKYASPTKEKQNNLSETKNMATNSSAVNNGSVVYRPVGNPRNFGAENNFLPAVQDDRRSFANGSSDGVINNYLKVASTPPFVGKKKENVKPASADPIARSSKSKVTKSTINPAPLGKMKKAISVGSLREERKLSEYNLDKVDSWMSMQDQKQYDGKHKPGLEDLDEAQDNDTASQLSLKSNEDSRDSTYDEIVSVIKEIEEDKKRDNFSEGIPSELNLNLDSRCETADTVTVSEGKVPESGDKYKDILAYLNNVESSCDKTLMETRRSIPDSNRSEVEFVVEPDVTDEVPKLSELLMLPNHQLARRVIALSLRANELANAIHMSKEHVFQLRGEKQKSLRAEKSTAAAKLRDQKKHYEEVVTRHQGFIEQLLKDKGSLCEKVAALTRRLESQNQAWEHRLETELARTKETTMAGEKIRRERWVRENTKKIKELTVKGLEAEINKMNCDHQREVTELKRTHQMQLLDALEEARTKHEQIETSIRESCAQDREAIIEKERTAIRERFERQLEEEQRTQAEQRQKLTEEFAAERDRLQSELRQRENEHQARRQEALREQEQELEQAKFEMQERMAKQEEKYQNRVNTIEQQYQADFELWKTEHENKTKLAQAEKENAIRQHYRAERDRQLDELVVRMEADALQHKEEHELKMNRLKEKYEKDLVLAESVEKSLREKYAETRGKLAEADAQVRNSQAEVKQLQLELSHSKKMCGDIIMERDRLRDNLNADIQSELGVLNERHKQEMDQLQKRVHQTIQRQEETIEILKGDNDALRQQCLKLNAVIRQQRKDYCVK

[3] = target: T3, Cep131-N1 (1-480 aa) (Drosophila) (UniProt A1Z7Z9)
T3 sequence: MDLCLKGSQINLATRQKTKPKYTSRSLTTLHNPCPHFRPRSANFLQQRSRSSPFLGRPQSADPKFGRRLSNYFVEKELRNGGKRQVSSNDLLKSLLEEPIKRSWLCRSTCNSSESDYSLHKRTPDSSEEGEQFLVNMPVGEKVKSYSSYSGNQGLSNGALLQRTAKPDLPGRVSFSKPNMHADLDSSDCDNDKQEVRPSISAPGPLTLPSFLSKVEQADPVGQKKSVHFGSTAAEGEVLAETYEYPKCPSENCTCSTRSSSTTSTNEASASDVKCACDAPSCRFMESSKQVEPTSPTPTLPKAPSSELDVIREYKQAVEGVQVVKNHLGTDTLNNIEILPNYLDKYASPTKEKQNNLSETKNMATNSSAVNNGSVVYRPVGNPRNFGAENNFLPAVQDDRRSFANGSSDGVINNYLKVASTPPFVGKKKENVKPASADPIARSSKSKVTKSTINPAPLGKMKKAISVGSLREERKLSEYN

[4] = target: T4, Cep131-M1 (481-781 aa) (Drosophila) (UniProt A1Z7Z9)
T4 sequence: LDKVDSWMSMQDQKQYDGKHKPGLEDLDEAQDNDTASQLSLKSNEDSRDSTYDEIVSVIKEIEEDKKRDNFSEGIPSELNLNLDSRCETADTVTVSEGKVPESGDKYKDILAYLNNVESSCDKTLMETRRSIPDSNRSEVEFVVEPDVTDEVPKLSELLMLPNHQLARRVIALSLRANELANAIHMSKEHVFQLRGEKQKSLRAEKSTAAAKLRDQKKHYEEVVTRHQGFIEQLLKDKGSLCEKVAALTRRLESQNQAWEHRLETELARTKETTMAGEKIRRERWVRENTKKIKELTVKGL

| Substance | binding [1] | binding [2] | binding [3] | binding [4] |
| --- | --- | --- | --- | --- |
| Cep162-C (448-897 aa), yeast two-hybrid (Drosophila) (domain or fragment) | binds | binds | binds | no binding |
| Cep162-N (1-447 aa), yeast two-hybrid (Drosophila) (domain or fragment) |  | no binding |  |  |
| Cep162-FL (from UniProt Q9W474) |  | binds |  |  |
